{"source": "the supplement of paper PMC10403144", "system": "Toxoplasma gondii RH tachyzoites", "assay": "inhibition of mitochondrial O2 consumption rate (% inhibition (relative to pre-injection OCR and atovaquone/antimycin A control)); higher = stronger ETC inhibition", "conditions": "1 µM", "key": {"[1]": {"conditions": "injection port (sequential injection order): B"}, "[2]": {"conditions": "injection port (sequential injection order): C"}, "[3]": {"conditions": "injection port (sequential injection order): A"}}, "note": "Some of the results follow.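 Rule for the calls: active = mitochondrial OCR inhibition above 30% at 1 uM; inactive = 30% or less.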 Most values come without repeats; read them as rough."}
{"smiles": "Cc1cc(C(=O)Nc2ccc(-c3ccccc3)cc2)no1", "values": [{"measurement": "inhibition of mitochondrial O2 consumption rate", "setting": "[1]", "result": "inactive: -0.431"}]}
{"smiles": "COc1cc(C2=NCCN2)ccc1-n1cc(-c2cccc(C3=NCCN3)c2)nn1", "values": [{"measurement": "inhibition of mitochondrial O2 consumption rate", "setting": "[2]", "result": "inactive: -14.1"}]}
{"smiles": "c1csc(-c2cnc3sc(NCC4CCOCC4)nn23)c1", "values": [{"measurement": "inhibition of mitochondrial O2 consumption rate", "setting": "[3]", "result": "inactive: -7.39"}]}
{"smiles": "Cc1ccc(S(=O)(=O)n2cc(-c3ccnc(N)c3)c3cc(Br)cnc32)cc1", "values": [{"measurement": "inhibition of mitochondrial O2 consumption rate", "setting": "[3]", "result": "inactive: -7.7"}]}
{"smiles": "O=C(Nc1ccc(F)c(-c2nc3cc(-c4ccccc4)cnc3[nH]2)c1)N1CCCC1", "values": [{"measurement": "inhibition of mitochondrial O2 consumption rate", "setting": "[3]", "result": "inactive: -0.642"}]}
{"smiles": "O=C(c1ccco1)N(CCCn1ccnc1)c1nc2c(Cl)cccc2s1", "values": [{"measurement": "inhibition of mitochondrial O2 consumption rate", "setting": "[3]", "result": "inactive: 2.01"}]}
{"smiles": "Cc1nc(-c2ccccn2)nc(N2CCC(Cc3ccccc3)C2)c1Cl", "note": "(stereo unspecified)", "values": [{"measurement": "inhibition of mitochondrial O2 consumption rate", "setting": "[3]", "result": "inactive: -11.3"}]}
{"smiles": "O=C(Nc1ccnc(-c2cccnc2)n1)c1cc(C(F)(F)F)cc(C(F)(F)F)c1", "values": [{"measurement": "inhibition of mitochondrial O2 consumption rate", "setting": "[1]", "result": "inactive: -14.1"}]}
{"smiles": "NCC(=O)N1CCn2c(nc(-c3ccccc3)c2Nc2ccc3c(c2)OCO3)C1", "values": [{"measurement": "inhibition of mitochondrial O2 consumption rate", "setting": "[3]", "result": "inactive: -4.16"}]}
{"smiles": "Cc1cc(NC(=O)c2ccc(S(=O)(=O)N(Cc3ccccc3)C(C)C)cc2)no1", "values": [{"measurement": "inhibition of mitochondrial O2 consumption rate", "setting": "[3]", "result": "inactive: -7.63"}]}
{"smiles": "COc1ccc(-c2nn(C(C)C)c3ncnc(N)c23)cc1OC", "values": [{"measurement": "inhibition of mitochondrial O2 consumption rate", "setting": "[2]", "result": "inactive: -27.1"}]}
{"smiles": "O=C(NC1=NCCS1)c1sc2cc(F)ccc2c1Cl", "values": [{"measurement": "inhibition of mitochondrial O2 consumption rate", "setting": "[3]", "result": "inactive: -3.55"}]}
{"smiles": "Nc1ncnc2c1c(-c1cnc3ccccc3c1)nn2CC1CCNCC1", "values": [{"measurement": "inhibition of mitochondrial O2 consumption rate", "setting": "[1]", "result": "inactive: -5.04"}]}
{"smiles": "Cc1nn2c(=O)c3c([nH]c2c1-c1ccc(Cl)cc1)CCCC3", "values": [{"measurement": "inhibition of mitochondrial O2 consumption rate", "setting": "[3]", "result": "inactive: -7.47"}]}
{"smiles": "Brc1c(-c2ccc3c(c2)OCO3)nc2ncccn12", "values": [{"measurement": "inhibition of mitochondrial O2 consumption rate", "setting": "[3]", "result": "inactive: 2.02"}]}
{"smiles": "O=C(COc1cccc(F)c1)Nc1nc(-c2ccccn2)cs1", "values": [{"measurement": "inhibition of mitochondrial O2 consumption rate", "setting": "[3]", "result": "inactive: 2.76"}]}
